This passage reports IC50 results from US20230233520A1, “COMBINATION THERAPY OF ARTEMISININ-RELATED COMPOUNDS AND HISTONE DEACETYLASE INHIBITORS FOR TREATMENT OF HPV-RELATED BENIGN, PREMALIGNANT, AND MALIGNANT DISEASES” (Georgetown University, priority 2020, published 2023).

For assay [1], the system named is HeLa cells. Kind of assay: CELLTITER-GLO cell viability, drugs alone and in combination (Example 4). To be noted: Homo sapiens, SAHA alone. Format: cell-based. The procedure: (§1) The cell lines were treated with artesunate, vorinostat, and panobinostat individually and in combination. The IC50 values were calculated from the cell viability assays for each drug alone and in combination. […] Cells were then incubated for a 24-hour period to allow them to adhere to the wells. The cells were then treated with various concentrations of artesunate, panobinostat, and vorinostat. For the experiments involving artesunate and panobinostat, the concentrations used varied by cell type. […] After an incubation time of 72 hours, the CELLTITER-GLO® Luminescent Cell Viability Assay (Promega) was conducted. The buffer/enzyme solution was mixed and applied to the cells according to the Promega protocol. Cells were then placed on the orbital shaker for 2 minutes and then placed in the luminometer for reading. To analyze the data, the background (from only the DMEM media) was subtracted from the luminescence of each well. […] All readings were normalized based upon the control values. […] Analyses were conducted using GraphPad Prism 9. The combination index and dose-reduction index values were calculated based using the summary of the data for all three cell types. […] The combination index and dose-reduction index values were calculated based using the summary of the data for all three cell types. […]
A general note: ATP-based viability assays read luminescence as a measure of living cells.

Assay [2] deals with SiHa cells. The description is as above. Format: cell-based. The following applies: Homo sapiens, SAHA alone. The procedure: as §1

As for `O=C(CCCCCCC(=O)Nc1ccccc1)NO` [vorinostat], the IC50 was found to be 1.38 µM in assay [1] and 1.81 µM in assay [2].

For orientation: IC50 means the concentration needed to halve the response being measured.
